# The list is a part of this screen's results and no random one: it is rich in T/C values a quarter to a half above the control, in often repeated tests (any T/C) and in doses without a T/C. Other doses and runs of a compound stand elsewhere. T/C: endpoint of the treated group in % of that of the vehicle group. Where survival is the endpoint, this PubChem deposit counts one and a half times the control or more as active, and values a quarter to a half above the control carry no call in these data; other NCI protocols may use other cut-offs. Schedule codes are those of the source, read here as Q, the interval in days (D) or hours (H), X, the number of doses. Some T/C values are followed by the survivors on the day toxicity was checked, most often the fifth; without a count, all were alive then. Some entries were tested several times; the results are listed from low to high. Signs of the kind (2×) count equal records among those shown. Some schedules carry Z or #; the key to these is not given.
# Test system: L1210 leukemia ip in BDF1 mice, survival T/C
# Assay: NCI In Vivo Anticancer Drug Screen. Data for tumor model L1210 Leukemia (intraperitoneal) in B6D2F1 (BDF1) mice
# Details: T/C endpoint: mean survival time, higher T/C = longer survival
smiles,measurement,setting,value
O=NN(CCCl)C(=O)NCCCl,T/C,"dose: 0.5 mg/kg/injection, schedule: Q#A X Z (oral), vehicle: saline",125 % of control
same,T/C,"dose: 0.6 mg/kg/injection, schedule: Q01DX Z (ip), vehicle: saline",139 % of control
same,T/C,"dose: 0.75 mg/kg/injection, schedule: Q01DX009 (ip), vehicle: saline",125 % of control
same,T/C,"dose: 0.75 mg/kg/injection, schedule: Q01DX015 (ip), vehicle: saline",129 % of control
same,T/C,"dose: 0.75 mg/kg/injection, schedule: Q13HX018 (ip), vehicle: saline",141 % of control
same,T/C,"dose: 0.9 mg/kg/injection, schedule: Q01DX009 (ip), vehicle: saline + alcohol",134 % of control
same,T/C,"dose: 1.25 mg/kg/injection, schedule: Q01DX009 (ip), vehicle: saline","129, 132, 137, 150 % of control"
same,T/C,"dose: 1.3 mg/kg/injection, schedule: Q01DX010 (ip), vehicle: saline",140 % of control
same,T/C,"dose: 1.5 mg/kg/injection, schedule: Q01DX009 (ip), vehicle: saline",144 % of control
same,T/C,"dose: 1.5 mg/kg/injection, schedule: Q01DX009 (sc), vehicle: saline",127 % of control
same,T/C,"dose: 1.5 mg/kg/injection, schedule: Q01DX015 (ip), vehicle: saline",145 % of control
same,T/C,"dose: 1.5 mg/kg/injection, schedule: Q## X024 (oral), vehicle: saline",142 % of control
same,T/C,"dose: 1.56 mg/kg/injection, schedule: Q01DX Z (ip), vehicle: carboxymethylcellulose (CMC)",127 % of control
same,T/C,"dose: 1.8 mg/kg/injection, schedule: Q01DX009 (ip), vehicle: saline + alcohol","144, 155, 156, 157 % of control"
same,T/C,"dose: 2.0 mg/kg/injection, schedule: Q01DX009 (ip), vehicle: Klucel (hydroxypropylcellulose) (HPC)","125, 139, 140, 150 % of control"
same,T/C,"dose: 2.0 mg/kg/injection, schedule: Q01DX009 (ip), vehicle: saline + alcohol","124, 133, 140, 143, 145, 148, 155 % of control"
same,T/C,"dose: 2.0 mg/kg/injection, schedule: Q01DX009 (ip), vehicle: saline, evaluated on day 30","119, 138, 151, 159, 160 (2×), 162 [5 of 6 alive], 166 (2×), 170, 177, 180, 182, 293 % of control"
same,T/C,"dose: 2.0 mg/kg/injection, schedule: Q01DX009 (ip), vehicle: saline, evaluated on day 60","137, 152, 153, 158 % of control"
same,T/C,"dose: 2.0 mg/kg/injection, schedule: Q01DX Z (oral), vehicle: saline",129 % of control
same,T/C,"dose: 2.33 mg/kg/injection, schedule: Q02DX010 (ip), vehicle: other",148 % of control
same,T/C,"dose: 2.5 mg/kg/injection, schedule: Q01DX009 (ip), vehicle: saline","179, 192, 204, 231 % of control"
same,T/C,"dose: 3.0 mg/kg/injection, schedule: Q01DX001 (ip), vehicle: saline",131 % of control
same,T/C,"dose: 3.0 mg/kg/injection, schedule: Q01DX005 (oral), vehicle: saline",147 % of control [9 of 10 alive]
same,T/C,"dose: 3.0 mg/kg/injection, schedule: Q## X003 (ip), vehicle: saline",132 % of control
same,T/C,"dose: 3.0 mg/kg/injection, schedule: Q## X024 (ip), vehicle: saline",145 % of control
same,T/C,"dose: 3.0 mg/kg/injection, schedule: Q## X Z (ip), vehicle: saline",130 % of control
same,T/C,"dose: 3.5 mg/kg/injection, schedule: Q01DX009 (ip), vehicle: saline + alcohol","181, 200, 234, 242 % of control"
same,T/C,"dose: 3.5 mg/kg/injection, schedule: Q02DX010 (ip), vehicle: saline",135 % of control
same,T/C,"dose: 4.0 mg/kg/injection, schedule: Q01DX001 (ip), vehicle: Klucel (hydroxypropylcellulose) (HPC)",129 % of control
same,T/C,"dose: 4.0 mg/kg/injection, schedule: Q01DX001 (ip), vehicle: distilled water + alcohol",132 % of control
same,T/C,"dose: 4.0 mg/kg/injection, schedule: Q01DX001 (ip), vehicle: other, evaluated on day 9",129 % of control
same,T/C,"dose: 4.0 mg/kg/injection, schedule: Q01DX001 (ip), vehicle: other, evaluated on day 60",132 % of control
same,T/C,"dose: 4.0 mg/kg/injection, schedule: Q01DX006 (iv), vehicle: saline",141 % of control
same,T/C,"dose: 4.0 mg/kg/injection, schedule: Q01DX009 (ip), vehicle: Klucel (hydroxypropylcellulose) (HPC)","162, 164, 168, 178 % of control"
same,T/C,"dose: 4.0 mg/kg/injection, schedule: Q01DX009 (ip), vehicle: saline + alcohol","157, 170, 171, 183, 194, 200, 220 % of control"
same,T/C,"dose: 4.0 mg/kg/injection, schedule: Q01DX009 (ip), vehicle: saline, evaluated on day 30","146, 167, 200, 206, 213, 216, 220, 227, 233, 262 [4 of 6 alive], 265, 291, 326, 329 % of control"
same,T/C,"dose: 4.0 mg/kg/injection, schedule: Q01DX009 (ip), vehicle: saline, evaluated on day 60","205, 211, 266, 274 % of control"
same,T/C,"dose: 4.0 mg/kg/injection, schedule: Q01DX Z (oral), vehicle: saline",149 % of control
same,T/C,"dose: 4.0 mg/kg/injection, schedule: Q04DX002 (ip), vehicle: saline + alcohol",128 and 130 % of control
same,T/C,"dose: 4.2 mg/kg/injection, schedule: Q02DX008 (ip), vehicle: other",141 % of control
same,T/C,"dose: 4.5 mg/kg/injection, schedule: Q03HX032 (ip), vehicle: saline + alcohol",144 % of control
same,T/C,"dose: 4.5 mg/kg/injection, schedule: Q## X032 (ip), vehicle: saline + alcohol",144 % of control
same,T/C,"dose: 5.0 mg/kg/injection, schedule: Q01DX001 (ip), vehicle: other",126 % of control
same,T/C,"dose: 5.0 mg/kg/injection, schedule: Q01DX009 (ip), vehicle: saline","138, 292, 324, 375 % of control"
same,T/C,"dose: 6.0 mg/kg/injection, schedule: Q01DX001 (ip), vehicle: saline",145 % of control
same,T/C,"dose: 6.0 mg/kg/injection, schedule: Q01DX001 (sc), vehicle: saline",137 % of control
same,T/C,"dose: 6.0 mg/kg/injection, schedule: Q03DX Z (oral), vehicle: saline",139 % of control
same,T/C,"dose: 6.0 mg/kg/injection, schedule: Q13HX018 (ip), vehicle: saline",131 % of control
